# Measurements reported in PubChem BioAssay AID1259405 (NCATS, 2018).
# Aim: 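Mouse-designed siRNAs used to find CHO productivity engineering targets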 (primary screen)
# Cell system: Chinese hamster CHO-K1 ovary cells with stable secreted eGFP expression
# Reagent: single siRNA against mouse genes, 0.8 pmol siRNA per well (2 µl of 400 nM stock)
# Time to read-out: 3 days
# Detection: 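Per-well intracellular GFP measured by laser scanning cytometry, plus viability from ATP luminescence, each relative to plate median of non-targeting control wells, in %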
# Reading the numbers: GFP, % of control: higher = more GFP per well, higher productivity; viability (ATP), % of control: higher = more viable cells (more ATP)
# Hit rule: 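a knock-down is called active if GFP reaches 120% or more of non-targeting control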
# The whole screen tested about 50,000 reagents; shown is a part drawn at random. About 4,000 of them (8%) were called active. 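Mouse siRNA library applied to hamster cells; one well for each siRNA.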 Entries without a mark were called inactive. The numbers tell different reagents against one gene apart. Reagent sequences are not shown.
target,siRNA no.,"GFP, % of control","viability (ATP), % of control"
Sumf1 (GeneID 58911),1,95.7,96.5
Sumf1 (GeneID 58911),2,136 (active),137
Sumf1 (GeneID 58911),3,103,78.4
Pth2r (GeneID 213527),1,46.5,60.5
Pth2r (GeneID 213527),2,79.4,59.6
Pth2r (GeneID 213527),3,60.2,71.7
Clxn (GeneID 66793),1,64.1,61.8
Clxn (GeneID 66793),2,55.9,47
Clxn (GeneID 66793),3,85.7,78.2
Scn8a (GeneID 20273),1,75,85.5
Scn8a (GeneID 20273),2,79.1,46.2
Scn8a (GeneID 20273),3,61.8,76.9
Atp2a2 (GeneID 11938),1,100,67.3
Atp2a2 (GeneID 11938),2,96,68.1
Atp2a2 (GeneID 11938),3,78.7,79.1
E2f4 (GeneID 104394),1,78.1,83
E2f4 (GeneID 104394),2,76.8,77
Cyp4a12a (GeneID 277753),1,55.7,60.4
Cyp4a12a (GeneID 277753),2,65.3,70
Cyp4a12a (GeneID 277753),3,76.1,73.3
Sry (GeneID 21674),1,71.3,75.3
Sry (GeneID 21674),2,64.7,76.7
Sry (GeneID 21674),3,79.1,66.1
Gbp9 (GeneID 236573),1,116,110
Gbp9 (GeneID 236573),2,76.3,103
Gbp9 (GeneID 236573),3,20.8,38.5
Snx17 (GeneID 266781),1,58.9,70.6
Snx17 (GeneID 266781),2,76.6,59.1
Snx17 (GeneID 266781),3,58.2,58.3
Rybp (GeneID 56353),1,90.1,92
Rybp (GeneID 56353),2,113,66.6
Cldn16 (GeneID 114141),1,94.3,86.9
Cldn16 (GeneID 114141),2,79.1,75
Cldn16 (GeneID 114141),3,110,117
Slc51b (GeneID 330962),1,36.3,17.6
Slc51b (GeneID 330962),2,116,73
Slc51b (GeneID 330962),3,80,81.1
Phc1 (GeneID 13619),1,74.3,77.9
Phc1 (GeneID 13619),2,78.8,103
Nmrk1 (GeneID 225994),1,146 (active),134
Nmrk1 (GeneID 225994),2,58.2,55.1
Nmrk1 (GeneID 225994),3,111,63.7
Cers4 (GeneID 67260),1,42.8,59.8
Cers4 (GeneID 67260),2,76.1,25.3
Cers4 (GeneID 67260),3,123 (active),85.8
Fndc4 (GeneID 64339),1,102,94.7
Fndc4 (GeneID 64339),2,39.5,56.5
Fndc4 (GeneID 64339),3,96.5,52.9
Cdh4 (GeneID 12561),1,66.1,96.6
Cdh4 (GeneID 12561),2,41.5,85.2
Cdh4 (GeneID 12561),3,21.6,11.4
Efna4 (GeneID 13639),1,85,61
Efna4 (GeneID 13639),2,121 (active),84.2
Efna4 (GeneID 13639),3,29.6,31.2
4632433K11Rik (GeneID 77043),1,92,99.5
4632433K11Rik (GeneID 77043),2,76.7,65.2
4632433K11Rik (GeneID 77043),3,123 (active),66.3
Poglut2 (GeneID 72050),1,54.9,57.3
Poglut2 (GeneID 72050),2,72.7,51.9
Poglut2 (GeneID 72050),3,61.1,77.1
Krt78 (GeneID 332131),1,50.5,52.1
Krt78 (GeneID 332131),2,79.1,73.7
Eipr1 (GeneID 380752),1,75.2,79.3
Eipr1 (GeneID 380752),2,76.5,77.3
Eipr1 (GeneID 380752),3,70,86.1
Mef2b (GeneID 17259),1,71.5,67.1
Mef2b (GeneID 17259),2,43.7,50.6
Mef2b (GeneID 17259),3,90.3,87.8
Fgd2 (GeneID 26382),1,104,133
Fgd2 (GeneID 26382),2,88.1,69.5
Fgd2 (GeneID 26382),3,79.9,63.9
Scn10a (GeneID 20264),1,100,93.5
Scn10a (GeneID 20264),2,68.7,52.4
Scn10a (GeneID 20264),3,84.6,66.6
Cfap20dc (GeneID 74430),1,89.7,67.4
Cfap20dc (GeneID 74430),2,91.5,72.8
Cfap20dc (GeneID 74430),3,104,80.6
Ugt1a5 (GeneID 394433),1,52.9,45.7
Ugt1a5 (GeneID 394433),2,49.2,77.1
Ugt1a5 (GeneID 394433),3,47.6,61.2
Tmed1 (GeneID 17083),1,58.4,55.9
Tmed1 (GeneID 17083),2,46.8,30.9
Tmed1 (GeneID 17083),3,95.6,47.6
Aldh1a2 (GeneID 19378),1,58.9,74.6
Aldh1a2 (GeneID 19378),2,73.7,69.5
Aldh1a2 (GeneID 19378),3,74.9,83.3
Cd302 (GeneID 66205),1,117,116
Cd302 (GeneID 66205),2,62.9,73.7
Cd302 (GeneID 66205),3,99.3,87.8
Olfml2a (GeneID 241327),1,158 (active),87.7
Olfml2a (GeneID 241327),2,95.6,91.2
Olfml2a (GeneID 241327),3,102,69.8
Chil4 (GeneID 104183),1,86.7,97
Chil4 (GeneID 104183),2,96.2,74.3
Chil4 (GeneID 104183),3,101,94.6
Cdh24 (GeneID 239096),1,65.4,70.4
Cdh24 (GeneID 239096),2,72.1,48.5
Cdh24 (GeneID 239096),3,67.1,64.3
Pate6 (GeneID 68171),1,76.4,101
Pate6 (GeneID 68171),2,45.9,76
Pate6 (GeneID 68171),3,76.3,79.6
Insr (GeneID 16337),1,78.8,38.2
Anks3 (GeneID 72615),1,45.6,71.3
Anks3 (GeneID 72615),2,64.5,94.7
Anks3 (GeneID 72615),3,52,66
Or12j4 (GeneID 258056),1,73.9,70.9
Or12j4 (GeneID 258056),2,88.3,93.6
Or12j4 (GeneID 258056),3,71.8,78.4

10 entries from above, arranged by “viability (ATP), % of control”, high to low:
target,siRNA no.,"GFP, % of control","viability (ATP), % of control"
4632433K11Rik (GeneID 77043),1,92,99.5
Efna4 (GeneID 13639),2,121 (active),84.2
Poglut2 (GeneID 72050),3,61.1,77.1
4632433K11Rik (GeneID 77043),3,123 (active),66.3
4632433K11Rik (GeneID 77043),2,76.7,65.2
Efna4 (GeneID 13639),1,85,61
Poglut2 (GeneID 72050),1,54.9,57.3
Krt78 (GeneID 332131),1,50.5,52.1
Poglut2 (GeneID 72050),2,72.7,51.9
Efna4 (GeneID 13639),3,29.6,31.2
